The assay in a line: qHTS Assay to Find Inhibitors of Chronic Active B-Cell Receptor Signaling. The conditions noted are these: ABC-DLBCL IkBa-CBG/CBR reporter, luminescence ratio (green luciferase fused to IkBa over red control in TMD8 lymphoma cells), 4 h. In short, it runs like this: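 Doxycycline induced both beetle luciferases in TMD8 lymphoma cells; IKK-driven degradation limits the IkappaBalpha-fused green signal, while red luminescence normalises for cell number and nonspecific effects. Compounds tested up to 46 uM, 4 hrs.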
Background: Quantitative high-throughput screening tests each substance at several concentrations.

Where [1] appears, read: measured here: CBR red luminescence, cell number.
[2] abbreviates: measured here: IkBa-CBG green luminescence.

Consider 63 compounds from PubChem BioAssay AID493014 (National Center for Advancing Translational Sciences (NCATS), 2011).

This is one part of the list. These are further read-outs of the screen, such as a control signal, another cell line or another target. No call is given for them. The list favours compounds with an active or inconclusive main result. Potencies come from curve fits of mixed quality, noted in brackets.

On to `Fc1ccc(-n2nnc(-c3cnc4ccccc4c3)n2)cc1`, for which the AC50 (commonly the concentration at which the activity in the assay is half-maximal) under setting [1] was 3.55 µM [falling, full curve].

Take `Cc1ccccc1CC(=O)NC1CCN(Cc2ccccc2)CC1`: the half-maximal activity concentration (AC50) under setting [1] is 6.31 µM [rising, full curve, poor fit]. The same measure, in the same setting: the result for `CC(=O)c1cnc(-c2cccc(Cl)c2)s1` reads 11.2 µM [rising, partial curve, poor fit]; that for `CN(Cc1ccco1)S(=O)(=O)c1cc(F)ccc1CN1C(=O)c2cccnc2C1=O`, 6.31 µM [falling, single point]. With `CCCCCCN(C(=O)CCCCCN1C(=O)NC(c2ccc(-c3ccccc3)cc2)C(C(=O)OCc2ccccc2)=C1C)C(C(=O)NCCCC)c1ccc(OCC(=O)OC)c(C(=O)OC)c1` (centres undefined), under setting [1], the AC50 was 3.55 µM [rising, single point]. On the same count and under the same terms, the value for `Cc1ccc(CNC(=O)C(=O)NCC(c2ccco2)S(=O)(=O)c2ccc(C)cc2)cc1` (centres undefined) was 1.26 µM [rising, full curve]; that for `COC(=O)c1ccc(C(=O)OC)c(NC(=O)CCc2ccc(C)o2)c1` was 20.6 µM [falling, single point]; that for `Cn1ncc2c(Nc3ccc(Cl)c(Cl)c3)ncnc21` was 4.47 µM [rising, single point].

Turning to `Cc1ccc(-n2nnnc2SCc2ccccn2)cc1C`, under setting [1], the AC50 is 2.06 µM [rising, partial curve, poor fit].

For the compound `Cc1nc(NC2=NCN(CCc3ccccc3)CN2)nc2ccccc12`, the concentration at half-maximal activity (AC50) under setting [1] was 25.9 µM [falling, partial curve, poor fit]. The same measure, in the same setting: the result for `Nc1nnc(SCC(=O)Nc2cc(C(F)(F)F)ccc2N2CCOCC2)s1` reads 29.1 µM [falling, single point]. The same measure, in the same setting: the result for `CCCn1c(SCC(=O)c2ccc3c(c2)OCCO3)nnc1C(C)C` reads 22.4 µM [falling, single point]; that for `O=C(/C=C/Nc1ccc([N+](=O)[O-])cc1)c1ccc(Br)cc1`, 9.2 µM [rising, partial curve, poor fit].

For the compound `Clc1ccc(SCCCCN2CCNCC2)cc1`, the half-maximal activity concentration (AC50) under setting [1] is 13 µM [falling, partial curve, poor fit]. Still for that read-out and setting: the value for `Cc1cc(-c2ccccc2)c(C#N)c(=S)[nH]1` was 0.0146 µM [rising, full curve, poor fit].

On to `COc1ccccc1CNC(=O)c1n[nH]c2ccccc12`, for which the AC50 under setting [1] is 35.5 µM [falling, partial curve, poor fit].

As to `O=C(CN1C(=O)S/C(=C/c2cccn2-c2ccc(O)cc2)C1=O)N1CCCC1`, under setting [1], the AC50 was 12.6 µM [rising, single point]. Regarding `COC(=O)C1C(c2ccccc2)C(C(=O)O)C1c1ccccc1` (centres undefined), the AC50 under setting [1] was 28.2 µM [rising, single point].

With `CN(C)C(=O)CSc1nnc([C@H](Cc2c[nH]c3ccccc23)NC(=O)OC(C)(C)C)o1`, the AC50 under setting [1] was 2.82 µM [rising, full curve, poor fit]. For the compound `Nc1ccc(C(=O)Nc2ccccc2N)cc1`, under setting [2], the AC50 was 11.2 µM [falling, partial curve]. On to `CCCCCC(=O)NC(=S)Nc1cccc(-c2nc3ncccc3o2)c1`, for which, under setting [1], the AC50 was 12.6 µM [rising, partial curve, poor fit].

Turning to `COc1ccc(-c2nc(-c3ccccc3)c(-c3cc([N+](=O)[O-])ccc3C)[nH]2)cc1OC`, the AC50 under setting [1] was 29.1 µM [rising, single point]. Still for that read-out and setting: the result for `O=C(OCCOc1ccc(Br)cc1)c1cnccn1` reads 3.66 µM [falling, single point]. Take `O=C(Nc1nnc(Cc2ccccc2)s1)c1ccco1`: the AC50 is 18.4 µM [falling, single point] under setting [1] and 25.9 µM [rising, partial curve, poor fit] under setting [2]. With `COc1cccc(NC(=O)CN(C)C(=O)CNC(=O)c2ccc(Oc3ccccc3)cc2)c1`, the AC50 under setting [1] is 23.1 µM [falling, single point]. As for `CSc1nc2c(C)c(C)c(C)c(C)c2[nH]1`, the AC50 under setting [1] was 35.5 µM [rising, single point]. On the same count and under the same terms, the result for `COc1cccc(-c2c(C(=O)N/N=C/c3cccs3)nnn2-c2nonc2N)c1` reads 35.5 µM [falling, single point]; that for `Clc1ccc(C2=NN=C3COc4ccccc4N3C2)cc1`, 0.13 µM [falling, full curve, poor fit]. Still for that read-out and setting: the result for `Cc1cnc(=O)[nH]c1SCC(=O)Nc1cc(C(F)(F)F)ccc1Cl` reads 39.8 µM [rising, partial curve, poor fit]; that for `CN1CCN(c2nc(Nc3cccc(C(F)(F)F)c3)nc(N3CCOCC3)n2)CC1`, 1.46 µM [rising, partial curve, poor fit]; that for `C/C(=N\NC(=S)NCc1ccccc1)c1ccc(C(C)(C)C)cc1`, 20.6 µM [rising, single point]. Still for that read-out and setting: the value for `O=C(NC(Cc1c[nH]c2ccccc12)C(=O)Nc1ccc(F)c([N+](=O)[O-])c1)c1cccs1` (centres undefined) was 8.2 µM [falling, partial curve]; that for `CCN(CC)C(=O)c1ccc2c(c1)nnn2C` was 1.64 µM [rising, partial curve, poor fit]; that for `COc1cc2cc(C(=O)N3CCc4ccccc4C3)[nH]c2cc1OC` was 1.12 µM [rising, full curve].

Consider `Cc1ccc(NC(=O)CSc2nnc(CNC(=O)c3cccs3)o2)cc1`, for which, under setting [1], the half-maximal activity concentration (AC50) is 14.1 µM [rising, single point]. The same measure, in the same setting: the result for `OCCC1CN(Cc2nc3c(s2)CCCC3)CCN1CCc1ccccc1` (centres undefined) reads 6.31 µM [rising, single point]; that for `Cc1ccc(OCC(=O)N2CCc3ccccc3C2)c(Br)c1`, 7.08 µM [rising, partial curve]. Still for that read-out and setting: the value for `CC(=O)N1CCc2cc(S(=O)(=O)NC(CC(C)C)C(=O)Nc3cc(C)ccn3)ccc21` (centres undefined) was 32.6 µM [rising, single point]; that for `Cc1cc(SCC(=O)c2cccs2)nc2c(C)cccc12` was 2.51 µM [rising, full curve, poor fit]. In the case of `Cc1ccc(N2C(=O)CS/C2=N\C(=S)Nc2ccccc2)cc1`, the AC50 was 2.24 µM [falling, full curve, poor fit] under setting [1] and 3.16 µM [falling, single point] under setting [2]. With `COc1c(OC)c(O)c2c(=O)c(O)c(-c3ccccc3)oc2c1OC`, the AC50 under setting [1] is 22.4 µM [falling, partial curve, poor fit]. Still for that read-out and setting: the value for `Cc1cccc(C)c1OCc1cc(C(=O)NCC2CC2)no1` was 35.5 µM [rising, single point]; that for `COc1cc(C(=O)NCc2ccco2)c(Br)c(OC)c1OC` was 28.2 µM [falling, single point].

Take `CCOC(=O)N1CCN(CC(O)c2c[nH]c3ccccc23)CC1` (centres undefined): the AC50 under setting [1] was 35.5 µM [falling, partial curve, poor fit].

For `CN(C)c1ccc(NC(=O)c2cccc(N3C(=O)CCC3=O)c2)cc1`, the AC50 under setting [1] was 8.91 µM [falling, partial curve]. Regarding `COc1cc(/C=C2\N=C(c3ccccc3)NNC2=O)cc(OC)c1OC`, the AC50 is, setting by setting: under setting [1], 12.6 µM [rising, partial curve]; under setting [2], 11.2 µM [falling, partial curve]. In the case of `NNC(=O)c1sc(-c2ccccc2)cc1N`, the AC50 under setting [1] is 7.94 µM [rising, partial curve]. Same read-out and setting: the value for `COCCNC(=O)COC(=O)/C=C/c1cnc2ccccc2n1` was 35.5 µM [falling, single point]; that for `COC(=O)c1cc(CSc2ncnc3sccc23)oc1C` was 35.5 µM [falling, partial curve, poor fit]. On the same count and under the same terms, the value for `COc1ccc(OC)c(Nc2nc(-c3sc(C)nc3C)cs2)c1` was 14.1 µM [falling, single point]; that for `O=C(Nc1ccc(Cl)cc1Cl)NC1CCCC1` was 0.251 µM [rising, full curve, poor fit]. As for `Cc1ccc(-c2csc3ncnc(-n4nnc5ccccc54)c23)cc1`, the AC50 is, setting by setting: under setting [1], 18.4 µM [rising, partial curve, poor fit]; under setting [2], 23.1 µM [falling, single point].

For `CCNc1nc(-c2ccc(Cl)cc2)cs1`, under setting [1], the AC50 was 1.12 µM [rising, full curve, poor fit].

With `COc1ccc(/C=C/C(=O)c2ccncc2)c2ccccc12`, the AC50 is 29.1 µM [rising, single point] under setting [1] and 20.6 µM [falling, single point] under setting [2]. For the compound `C=CCN(c1ccccc1)S(=O)(=O)c1ccc(Cl)c(C(=O)OCC(=O)NCCCN2CCCC2=O)c1`, the AC50 under setting [1] is 11.2 µM [falling, single point]. Consider `O=C(CCc1ccccc1)NN1C(=O)C2C3C=CC(O3)C2C1=O` (centres undefined), for which the AC50 under setting [1] was 35.5 µM [falling, single point].

In the case of `Nc1cccc(C(=O)Nc2ccc3nc(-c4cccnc4)[nH]c3c2)c1`, under setting [1], the AC50 was 20.6 µM [falling, partial curve, poor fit]. For `O=C1N=C(N2CCOCC2)S/C1=C/c1ccc(-c2ccccc2Cl)o1`, the concentration at half-maximal activity (AC50) under setting [1] is 3.66 µM [rising, full curve, poor fit]. The same measure, in the same setting: the result for `COc1cc2c(cc1NC(=O)C(C)OC(=O)C1CC(=O)N(Cc3ccco3)C1)oc1ccccc12` (centres undefined) reads 29.1 µM [falling, single point]. Regarding `COc1cccc(-c2nnc(NC(=O)c3ccco3)s2)c1`, under setting [1], the half-maximal activity concentration (AC50) is 3.16 µM [falling, full curve]. Regarding `O=C(NCCO)c1ccc2[nH]c3ccccc3c2c1`, the AC50 by setting is: under setting [1], 4.11 µM [rising, single point]; under setting [2], 5.62 µM [rising, partial curve, poor fit].

On to `Cn1c2ccccc2c2cc(C(=O)N3CCOCC3)sc21`, for which the AC50 under setting [1] is 1.12 µM [rising, full curve]. Still for that read-out and setting: the result for `O=[N+]([O-])c1ccc(O)c(/C=N\N=C2c3ccccc3-c3ccccc32)c1` reads 0.461 µM [rising, full curve].
